Source: patent US20120198585A1
No constants are given. Whether binding was seen depends on the method and setting. Some results given as binding are weak or reduced against the parent protein; the word gives no strength.

Assays:
[1] = biological target: 14λ:YFPc (Arabidopsis); assay: BiFC in stable transgenic Arabidopsis
[2] = biological target: 14λ:YFPc (Arabidopsis); assay: BiFC, transient co-expression in N. benthamiana leaves

B1: R18:YFPn (peptide, not shown: large carriers)
chain: PHCVPRDLSWLDLEANMCLP
- binding [1]: binds
- binding [2]: binds
